# From PubChem BioAssay AID1671190 (National Center for Advancing Translational Sciences (NCATS), 2021)
# By UniProt entry, the sequences of proteins in these tests, tags left out. Where a name states a change or a piece, a line headed by the entry shows the natural chain unless it says otherwise.
# UniProt P18054: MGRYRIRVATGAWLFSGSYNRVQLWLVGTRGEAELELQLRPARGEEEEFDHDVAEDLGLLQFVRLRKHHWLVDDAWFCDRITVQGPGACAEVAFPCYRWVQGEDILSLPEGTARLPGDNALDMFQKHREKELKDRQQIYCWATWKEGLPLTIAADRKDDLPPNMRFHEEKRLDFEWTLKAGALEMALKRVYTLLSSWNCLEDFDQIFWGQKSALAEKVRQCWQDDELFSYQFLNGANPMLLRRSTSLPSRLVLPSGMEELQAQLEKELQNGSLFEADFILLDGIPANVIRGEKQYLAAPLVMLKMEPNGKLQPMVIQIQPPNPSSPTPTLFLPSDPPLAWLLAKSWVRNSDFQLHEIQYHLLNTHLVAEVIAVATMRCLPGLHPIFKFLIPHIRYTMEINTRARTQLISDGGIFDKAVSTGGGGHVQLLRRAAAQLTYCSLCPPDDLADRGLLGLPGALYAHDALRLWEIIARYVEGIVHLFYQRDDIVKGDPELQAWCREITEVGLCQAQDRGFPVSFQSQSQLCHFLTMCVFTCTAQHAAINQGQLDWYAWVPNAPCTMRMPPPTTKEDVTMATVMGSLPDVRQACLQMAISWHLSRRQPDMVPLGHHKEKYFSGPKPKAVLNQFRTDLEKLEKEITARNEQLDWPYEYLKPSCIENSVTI
# The campaign covered roughly 580,000 compounds. About 6,100 (1.1%) were called active. Inconclusive results, whose numbers are uncertain, are shown with a selection of clear calls. Calls follow the shape of the dose curve; as a rule, active = well fitted inhibition curve with a large enough effect; inconclusive = small, poorly fitted or top-dose-only effect, or another doubt; inactive = no such curve, though single readings can be large or run the other way. A potency beside an inconclusive call is a rough fit, not a confirmed value.
# Target: Polyunsaturated fatty acid lipoxygenase ALOX12 (Homo sapiens) (UniProt P18054)
# Experiment: Primary qHTS assay for inhibitors of human arachidonate 12S-lipoxygenase (ALOX12): Round 2
# Conditions: purified 12hLO, xylenol orange hydroperoxide absorbance; series mostly up to 108 µM
# Procedure, shortened: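 Hydroperoxide product was detected by ferrous iron/xylenol orange as the 573 to 405 nm absorbance ratio. Arachidonic acid at 40 uM (final) was turned over for 30 min at room temperature by 150 nM human 12hLO, pH 7.0 Hepes buffer, after 15 min compound preincubation.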
# Potency is read from the fitted curve at half-maximal effect.
row,Compound,Potency
1,C=Cc1ccc(Cn2nc(-c3ccc(C)cc3)ccc2=O)cc1,"inconclusive: 89.1 µM [inhibitor, partial curve, poor fit]"
2,Cc1cccc(-n2cc(-c3ccccc3)c3c(NC4CCCC4)ncnc32)c1,"inconclusive: 63.1 µM [inhibitor, partial curve, poor fit]"
3,Cc1cc(C)cc(C(O)c2ncc(-c3cccc(C(F)(F)F)c3)[nH]2)c1 (stereo not drawn),"inconclusive: 31.6 µM [inhibitor, single point]"
4,CC1CCN(Cc2cc(=O)oc3cc(-c4ccccc4)c(O)cc23)CC1,"inconclusive: 112 µM [inhibitor, partial curve, poor fit]"
5,COc1cccc(CC(=O)Nc2ccc(S(=O)(=O)Nc3nccs3)cc2)c1,"inconclusive: 126 µM [inhibitor, partial curve, poor fit]"
6,CCOC(=O)c1c(NC(=O)c2ccc(S(=O)(=O)N3CCC(C)CC3)cc2)sc2c1CCN(CC)C2,"inconclusive: 100 µM [inhibitor, single point]"
7,Cc1ccc(C(=O)CSc2cc(C)[nH]c(=O)n2)cc1,"inconclusive: 44.7 µM [inhibitor, partial curve, poor fit]"
8,Cc1ccc(NCc2cc3ccc(C)cc3[nH]c2=O)c(C)c1,"inconclusive: 112 µM [inhibitor, partial curve, poor fit]"
9,CCCCNc1c(-c2ccc(SC(C)CC)cc2)nc2ccc(Cl)cn12 (stereo not drawn),"inconclusive: 50.1 µM [inhibitor, partial curve, poor fit]"
10,CCOC(=O)C1=C(C(Br)Br)NC(=O)NC1c1ccc2c(c1)OCO2 (stereo not drawn),"inconclusive: 5.62 µM [inhibitor, full curve]"
11,CCc1c(C)sc(NC(=O)C(F)(F)C(F)(F)C(F)(F)C(F)(F)F)c1C#N,active: 10 µM
12,O=c1[nH]c(=S)[nH]cc1S(=O)(=O)c1cccc(Cl)c1,"inconclusive: 2.82 µM [inhibitor, full curve, poor fit]"
13,CC(C)CCN1CCC2(COc3ccccc3C(=O)N2)C1 (stereo not drawn),inactive
14,COC1CC(C)NC(=S)N1 (stereo not drawn),"inconclusive: 79.4 µM [inhibitor, single point]"
15,O=C(c1ccc(C(F)(F)F)cc1)N1CCC12Cc1ccccc1NC2=O (stereo not drawn),inactive
16,C/C=C/c1cccc(-c2nc(C(=O)N3CCN(C)CC3)cc3c2[C@@H](CCO)N(C(=O)NC(C)C)C3)c1,"inconclusive: 141 µM [inhibitor, single point]"
17,COC(=O)Nc1nnc(-c2ccncc2)s1,"inconclusive: 28.2 µM [inhibitor, partial curve]"
18,CCc1ccc(NC(=O)CCn2cccc2)cc1,"inconclusive: 141 µM [inhibitor, single point]"
19,CC(C)(C)c1ccc(OCC(O)CN2CCN(c3ccccn3)CC2)cc1 (stereo not drawn),"inconclusive: 35.5 µM [inhibitor, partial curve, poor fit]"
20,CN(Cc1ccccc1)Cc1cc(=O)oc2ccc3ccccc3c12,"inconclusive: 35.5 µM [inhibitor, partial curve, poor fit]"
21,O=C(Nc1ccon1)[C@@H]1C[C@@H](c2ccc(F)cc2)N(Cc2ccccc2)C1,inactive
22,Cc1ccc(-n2c(C3CCN(C(=O)c4ccc(C#N)cc4)CC3)n[nH]c2=O)cc1,"inconclusive: 15.8 µM [inhibitor, full curve]"
23,Cc1cc(C)cc(NC(=S)N(Cc2ccc(Cl)cc2)Cc2ccc(C(=O)O)cc2)c1,active: 35.5 µM

row,Compound,Potency
1,Nc1nccnc1C(=O)NCC1CCOC1 (stereo not drawn),inactive
2,C#CCN(CC=C)C(=O)c1ccc2nc(C3CCCCC3)oc2c1,"inconclusive: 35.5 µM [inhibitor, partial curve, poor fit]"
3,CCn1cc(CN2CCc3nn(CC4CC4)c(=O)n3CC2)cn1,inactive
4,Cc1cccc(NC(=O)CSCc2nc(-c3ccccc3)oc2C)c1,inactive
5,Cc1ccc(S(=O)(=O)N2CCOCC2)cc1NC(=O)CSc1nnnn1C1CCCC1,"inconclusive: 100 µM [inhibitor, single point]"
6,COc1cc(C)ccc1OCCOc1ccc(C)cc1I,inactive
7,CCCC(=O)Nc1oc2c(C)cccc2c(=O)c1-c1ccc(OC)c(OC)c1,inactive
8,CCOC(=O)c1ccc(N2C(=O)c3n[nH]c(-c4ccco4)c3C2c2ccc(O)c(OCC)c2)cc1 (stereo not drawn),inactive
9,CCOC(=O)CCCNC(=O)COC(=O)[C@@H]1CCCN1S(=O)(=O)c1ccc(Cl)cc1,"inconclusive: 7.94 µM [inhibitor, full curve, poor fit]"
10,Oc1ccc(N=Nc2ccc3c(c2)OCCO3)c2cccnc12,"inconclusive: 17.8 µM [inhibitor, partial curve, poor fit]"
11,COCCCNC(=O)c1cnc2c(-c3ccc(F)cc3)c(C)nn2c1C,"inconclusive: 126 µM [inhibitor, partial curve, poor fit]"
12,CC1(C(=O)N2CCCC2C(=O)Nc2cccc(-n3cccn3)c2)CC1 (stereo not drawn),inactive
13,O=C(O)c1ccc(/C=C/C(=O)c2ccccc2C(=O)O)cc1,"inconclusive: 56.2 µM [inhibitor, partial curve, poor fit]"
14,c1ccc(COc2ccc(-c3cc4nc(NCc5ccc6c(c5)OCO6)ccn4n3)cc2)cc1,inactive
15,CC1=C[C@@H](CNS(=O)(=O)c2ccc(C#N)cc2)[C@H](C(C)C)C[C@H]1CC(=O)NCc1ccc(C#N)cc1,"inconclusive: 31.6 µM [inhibitor, partial curve]"
16,Cn1nc(-c2ccccc2F)c2cc(C(=O)NCCc3ccc(Cl)cc3)sc21,inactive
17,NC(=O)[C@H](CC1CCCCC1)NC(=O)[C@@H]1CN(C(=O)Nc2ccccc2)CCN1C(=O)C1CCNCC1,"inconclusive: 31.6 µM [inhibitor, full curve]"
18,O=C1CC(c2ccc(Cl)cc2)CC2=C1C=Nc1ccccc1N2 (stereo not drawn),"inconclusive: 31.6 µM [inhibitor, single point]"
19,CCC(=O)Nc1cccc(C(=O)/C=C/c2ccccc2)c1,inactive
20,COC(=O)c1ccc(N)c(N=CC2=C(O)CC(C)(C)CC2=O)c1,inactive
21,N#CC(=C=[N-])c1nc2ccccc2nc1-[n+]1cccc(NC(=O)c2cccs2)c1,"inconclusive: 12.6 µM [inhibitor, partial curve, poor fit]"
22,CC(=O)c1ccc(NC(=O)CSc2ccc(-c3cccs3)nn2)cc1,"inconclusive: 17.8 µM [inhibitor, partial curve, poor fit]"
23,CCOc1ccc(-c2nc(SCC(=O)c3ccccc3)n[nH]2)cc1,"inconclusive: 56.2 µM [inhibitor, partial curve, poor fit]"

row,Compound,Potency
1,CCS(=O)(=O)N1CCN(c2cccc(C)c2C)CC1,"inconclusive: 126 µM [inhibitor, single point]"
2,CN(Cc1ccccc1F)C(=O)COC(=O)CCN=C1NS(=O)(=O)c2ccccc21,inactive
3,CN(C)C(=O)[C@@H]1CN(Cc2ccc(F)cc2F)C[C@H]1CO,inactive
4,CCOc1ccccc1-c1nn2c(CN3CCCCC3)nnc2s1,"inconclusive: 44.7 µM [inhibitor, partial curve, poor fit]"
5,CN1CCCCC(NC(=O)c2ccc(C#N)cc2)C1=O (stereo not drawn),inactive
6,Cc1nn(C)c(C)c1CC(=O)NCc1cccnc1N1CCOCC1,"inconclusive: 56.2 µM [inhibitor, partial curve, poor fit]"
7,O=S1(=O)CC(N2CCN(CC3CC3)CC2)CN1Cc1ccc(F)cc1 (stereo not drawn),inactive
8,Cc1ccc(S(=O)(=O)Cc2ccc(C(=O)NCCc3ccc(Cl)cc3)o2)cc1,"inconclusive: 50.1 µM [inhibitor, partial curve, poor fit]"
9,Cc1ccc(-c2nc(C=Nc3ccc(O)cc3)c(O)o2)cc1,inactive
10,COc1ccc(N2CC(C(=O)Nc3c(C)nn(C)c3C)CC2=O)cc1 (stereo not drawn),inactive
11,COC(=O)C1CCN(S(=O)(=O)Cc2ccccc2Cl)CC1,inactive
12,c1ccc(-c2oc3ncnc(NCCCN4CCOCC4)c3c2-c2ccccc2)cc1,"inconclusive: 100 µM [inhibitor, single point]"
13,COc1cc(/C=N/NC(=S)Nc2cccc(S(=O)(=O)N(C)C)c2)cc(OC)c1O,inactive
14,CCNC(=S)Nc1ccc2c(c1)c(=O)n(C)n2Cc1ccc(Cl)cc1,"inconclusive: 39.8 µM [inhibitor, partial curve, poor fit]"
15,C[C@H](CO)N1C[C@H](C)[C@H](CN(C)Cc2cccc(O)c2)OCc2ccccc2-c2c(n(C)c3ccccc23)C1=O,"inconclusive: 44.7 µM [inhibitor, partial curve, poor fit]"
16,CCCCCCCC(=O)OC(CN1CCCCC1)CN1CCCC1=O (stereo not drawn),inactive
17,COC(=O)C1=C(C)N(c2cccc3ccccc23)C(=O)C1,"inconclusive: 79.4 µM [inhibitor, partial curve, poor fit]"
18,CCCCCCCCN1C(=O)[C@H](CC(=O)NCCCOCCCC)C[C@@]2(C(=O)OCC)CCCC=C12,"inconclusive: 50.1 µM [inhibitor, single point]"
19,COC(=O)c1ccc(/C=C2\SC(=S)N(CCCC(=O)NCCCN3CCOCC3)C2=O)cc1,"inconclusive: 112 µM [inhibitor, single point]"
20,COc1ccc(OCc2nnc(SCC(=O)N3CCCc4ccccc43)n2-c2ccc(C)cc2)cc1,inactive
21,Cc1cn([C@H]2C[C@H](O)[C@@H](CNCc3cccc(OC4CCCC4)c3)O2)c(=O)[nH]c1=O,"inconclusive: 35.5 µM [inhibitor, single point]"
22,CCS(=O)(=O)NC(CCSC)C(=O)O (stereo not drawn),"inconclusive: 39.8 µM [inhibitor, single point]"

# A second format for some results above:
row	Compound	Potency
2	CN(Cc1ccccc1F)C(=O)COC(=O)CCN=C1NS(=O)(=O)c2ccccc21	inactive
16	CCCCCCCC(=O)OC(CN1CCCCC1)CN1CCCC1=O (stereo not drawn)	inactive
20	COc1ccc(OCc2nnc(SCC(=O)N3CCCc4ccccc43)n2-c2ccc(C)cc2)cc1	inactive

# 3 structures from above, sorted by length of the SMILES, low to high:
row,Compound,Potency
16,CCCCCCCC(=O)OC(CN1CCCCC1)CN1CCCC1=O (stereo not drawn),inactive
7,O=S1(=O)CC(N2CCN(CC3CC3)CC2)CN1Cc1ccc(F)cc1 (stereo not drawn),inactive
19,COC(=O)c1ccc(/C=C2\SC(=S)N(CCCC(=O)NCCCN3CCOCC3)C2=O)cc1,"inconclusive: 112 µM [inhibitor, single point]"
